Measured values reported in paper doi:10.1101/289702.
No constants are given. Whether binding was seen depends on the method and setting. Binding seen in cells or lysates may run through a third protein. Some binding calls cover weakened binding; strength is not graded here. For some assays here: Sequences can lack the tags named with a protein.

The chains behind the UniProt entries cited, without tags or fusion partners.
UniProt P38486: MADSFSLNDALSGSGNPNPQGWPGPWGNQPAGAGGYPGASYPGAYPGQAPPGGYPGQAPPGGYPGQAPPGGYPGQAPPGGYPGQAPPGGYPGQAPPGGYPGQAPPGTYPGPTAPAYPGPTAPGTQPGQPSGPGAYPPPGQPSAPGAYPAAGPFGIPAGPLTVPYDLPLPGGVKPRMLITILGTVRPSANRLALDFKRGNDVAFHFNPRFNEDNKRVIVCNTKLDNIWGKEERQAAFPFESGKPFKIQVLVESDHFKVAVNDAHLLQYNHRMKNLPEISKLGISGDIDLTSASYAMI
UniProt P17931: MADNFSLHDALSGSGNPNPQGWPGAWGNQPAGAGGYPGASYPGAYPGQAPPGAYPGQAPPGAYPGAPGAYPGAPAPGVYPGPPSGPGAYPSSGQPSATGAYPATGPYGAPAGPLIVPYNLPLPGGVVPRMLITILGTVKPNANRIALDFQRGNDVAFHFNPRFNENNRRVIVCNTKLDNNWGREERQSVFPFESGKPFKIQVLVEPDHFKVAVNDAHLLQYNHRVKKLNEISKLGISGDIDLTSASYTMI

Columns and labels:
[1] = target: galectin-3 (dog (endogenous in MDCK)) (UniProt P38486); test: co-IP
Gal3-GFP = Gal3-GFP (UniProt P17931); test: co-IP

binding [1] | binding (Gal3-GFP) | Binder
binds |  | cystinosin-GFP fusion protein (protein, UniProt O60931 23-367) SVSLTVPPVVKLENGSSTNVSLTLRPPLNATLVITFEITFRSKNITILELPDEVVVPPGVTNSSFQVTSQNVGQLTVYLHGNHSNQTGPRIRFLVIRSSAISIINQVIGWIYFVAWSISFYPQVIMNWRRKSVIGLSFDFVALNLTGFVAYSVFNIGLLWVPYIKEQFLLKYPNGVNPVNSNDVFFSLHAVVLTLIIIVQCCLYERGGQRVSWPAIGFLVLAWLFAFVTMIVAAVGVTTWLQFLFCFSYIKLAVTLVKYFPQAYMNFYYKSTEGWSIGNVLLDFTGGSFSLLQMFLQSYNNDQWTLIFGDPTKFGLGVFSIVFDVVFFIQHFCLYRKRPGYDQLN
 | binds | CTNS-DsRed (protein, UniProt O60931 23-367) SVSLTVPPVVKLENGSSTNVSLTLRPPLNATLVITFEITFRSKNITILELPDEVVVPPGVTNSSFQVTSQNVGQLTVYLHGNHSNQTGPRIRFLVIRSSAISIINQVIGWIYFVAWSISFYPQVIMNWRRKSVIGLSFDFVALNLTGFVAYSVFNIGLLWVPYIKEQFLLKYPNGVNPVNSNDVFFSLHAVVLTLIIIVQCCLYERGGQRVSWPAIGFLVLAWLFAFVTMIVAAVGVTTWLQFLFCFSYIKLAVTLVKYFPQAYMNFYYKSTEGWSIGNVLLDFTGGSFSLLQMFLQSYNNDQWTLIFGDPTKFGLGVFSIVFDVVFFIQHFCLYRKRPGYDQLN
